{
  "source": "paper PMC8126888",
  "about": "(RSC Medicinal Chemistry, 2020)",
  "data": [
    {"tested_on": "Leishmania infantum MHOM/MA(BE)/67/ITMAP263 intracellular amastigotes", "conditions": "selectivity index vs PMM", "values": [
      {"smiles": "COCCNc1ccc(S(=O)(=O)N(CCOC)Cc2ccccc2)cc1", "note": "[DNDI0003366102]", "SI (vs PMM)": 2},
      {"smiles": "COc1ccc(OC)c(S(=O)(=O)N(Cc2ccccc2)C2CCCNC2)c1", "note": "(stereo not shown) [DNDI0003366131]", "SI (vs PMM)": 2},
      {"smiles": "COc1ccc(OC)c(S(=O)(=O)N(Cc2ccccc2)C2CCN(C(C)=O)CC2)c1", "note": "[DNDI0003366132]", "SI (vs PMM)": 1},
      {"smiles": "COc1ccc(C(N)=O)cc1S(=O)(=O)N(Cc1ccccc1)Cc1ccccc1", "note": "[DNDI0003366135]", "SI (vs PMM)": 9},
      {"smiles": "COc1ccc(C#N)cc1S(=O)(=O)N(Cc1ccccc1)Cc1ccccc1", "note": "[DNDI0003366138]", "SI (vs PMM)": 147},
      {"smiles": "CN(C)CCN(Cc1ccccc1)S(=O)(=O)c1ccccc1S(C)(=O)=O", "note": "[DNDI0003367255]", "SI (vs PMM)": 1},
      {"smiles": "CN(C)CCN(Cc1ccccc1)S(=O)(=O)c1ccccc1OC(F)(F)F", "note": "[DNDI0003367256]", "SI (vs PMM)": 5}
    ]},
    {"tested_on": "primary peritoneal mouse macrophages (PMM)", "conditions": "PMM IC50 vs L. infantum IC50", "values": [
      {"smiles": "COc1ccc(Cl)cc1S(=O)(=O)N(CC(=O)N1CCOCC1)Cc1ccccc1", "note": "[SCYX0001379806]", "SI (vs PMM)": 1}
    ]},
    {"tested_on": "primary peritoneal mouse macrophages (PMM)", "conditions": "selectivity index PMM vs L. infantum", "values": [
      {"smiles": "CCCCC1Nc2cc(Cl)c(S(N)(=O)=O)cc2S(=O)(=O)N1Cc1ccccc1", "note": "(stereo not shown) [DNDI0003392147]", "SI (vs PMM)": 9},
      {"smiles": "CCCCOc1ccc(C(=O)N2CCOCC2)cc1S(=O)(=O)NCc1ccccc1", "note": "[DNDI0003407874]", "SI (vs PMM)": 1},
      {"smiles": "COc1ccc(C(=O)N2CCOCC2)cc1S(=O)(=O)N(Cc1ccccc1)CC(C)(C)C", "note": "[DNDI0003407876]", "SI (vs PMM)": 64},
      {"smiles": "O=C(c1ccc(OCC2CCCO2)c(S(=O)(=O)NCc2ccccc2)c1)N1CCOCC1", "note": "(stereo not shown) [DNDI0003407877]", "SI (vs PMM)": 1},
      {"smiles": "COc1ccc(S(N)(=O)=O)cc1S(=O)(=O)NCc1ccccc1", "note": "[DNDI0003407892]", "SI (vs PMM)": 1},
      {"smiles": "COc1ccc(C(=O)N2CCOCC2)cc1S(=O)(=O)N(Cc1ccc(C(F)(F)F)nc1)C(C)c1ccc(F)cc1", "note": "(stereo not shown) [DNDI0003407905]", "SI (vs PMM)": 27},
      {"smiles": "COc1ccc(C(=O)N2CCOCC2)cc1S(=O)(=O)N(Cc1ccccc1)Cc1cnc(C(F)(F)F)nc1", "note": "[DNDI0003425509]", "SI (vs PMM)": 15},
      {"smiles": "COCCOCN1CNc2cc(OC)c(S(=O)(=O)N(Cc3ccccc3)Cc3ccccc3)cc2S1(=O)=O", "note": "[DNDI0003425511]", "SI (vs PMM)": 98},
      {"smiles": "O=S1(=O)NCNc2cc(Cl)c(S(=O)(=O)N(Cc3ccccc3)Cc3ccccc3)cc21", "note": "[DNDI0003425512]", "SI (vs PMM)": 25},
      {"smiles": "COc1cc2c(cc1S(=O)(=O)N(Cc1ccccc1)Cc1ccccc1)S(=O)(=O)NCN2", "note": "[DNDI0003425513]", "SI (vs PMM)": 25},
      {"smiles": "COCCOCN(Cc1ccccc1)S(=O)(=O)c1cc(OC)ccc1OC", "note": "[DNDI0003425514]", "SI (vs PMM)": 10},
      {"smiles": "COc1ccc(S(C)(=O)=O)cc1S(=O)(=O)N(Cc1ccccc1)CC(C)(C)C", "note": "[DNDI0003425524]", "SI (vs PMM)": 24},
      {"smiles": "COc1ccc(C#N)cc1S(=O)(=O)N(Cc1ccccc1)Cc1cnc(C(F)(F)F)nc1", "note": "[DNDI0003425527]", "SI (vs PMM)": 16},
      {"smiles": "COc1ccc(S(C)(=O)=O)cc1S(=O)(=O)N(Cc1ccccc1)Cc1cc(C(F)(F)F)nn1C", "note": "[DNDI0003578374]", "SI (vs PMM)": 5},
      {"smiles": "COc1ccc(C#N)cc1S(=O)(=O)N(Cc1ccc(C(F)(F)F)nc1)Cc1ccc(C(F)(F)F)nc1", "note": "[DNDI0003578377]", "SI (vs PMM)": 2},
      {"smiles": "O=S1(=O)c2ccccc2[C@H](O)[C@@H](Cc2ccccc2)N1Cc1ccccc1", "note": "[DNDI0003578378]", "SI (vs PMM)": 7},
      {"smiles": "O=S1(=O)c2ccccc2[C@H](O)[C@H](Cc2ccccc2)N1Cc1ccccc1", "note": "[DNDI0003578379]", "SI (vs PMM)": 5},
      {"smiles": "COCCN(Cc1ccccc1)S(=O)(=O)c1c(OC)ccc(Cl)c1[S+](C)[O-]", "note": "(stereo not shown) [DNDI0003578380]", "SI (vs PMM)": 2},
      {"smiles": "COCCN(Cc1ccccc1)S(=O)(=O)c1c(OC)ccc(Cl)c1S(C)(=O)=O", "note": "[DNDI0003578381]", "SI (vs PMM)": 1},
      {"smiles": "COc1ccc([S+](C)[O-])cc1S(=O)(=O)N(Cc1ccccc1)Cc1ccccc1", "note": "(stereo not shown) [DNDI0003578382]", "SI (vs PMM)": 109},
      {"smiles": "C[S+]([O-])c1c(Cl)ccc2c1S(=O)(=O)N(Cc1ccccc1)CCO2", "note": "(stereo not shown) [DNDI0003578383]", "SI (vs PMM)": 1},
      {"smiles": "CCCN(Cc1ccc(F)cc1)S(=O)(=O)c1cc([S+](C)[O-])ccc1OC", "note": "(stereo not shown) [DNDI0003578384]", "SI (vs PMM)": 6},
      {"smiles": "COc1ccc(S(N)(=O)=O)cc1S(=O)(=O)N(Cc1ccccc1)Cc1ccccc1", "note": "[DNDI0003578385]", "SI (vs PMM)": 113}
    ]}
  ]
}
